Test results taken from publication PMC4521722.
No constants are given. Whether binding was seen depends on the method and setting. Binding seen in cells or lysates may run through a third protein. Binding can be weak; no strength is given.

Target: T1, endogenous Arabidopsis thaliana DNA Pol λ (AtPolλ) (Arabidopsis thaliana (endogenous in Col-0 seedlings)) (UniProt Q9FNY4)
T1 sequence: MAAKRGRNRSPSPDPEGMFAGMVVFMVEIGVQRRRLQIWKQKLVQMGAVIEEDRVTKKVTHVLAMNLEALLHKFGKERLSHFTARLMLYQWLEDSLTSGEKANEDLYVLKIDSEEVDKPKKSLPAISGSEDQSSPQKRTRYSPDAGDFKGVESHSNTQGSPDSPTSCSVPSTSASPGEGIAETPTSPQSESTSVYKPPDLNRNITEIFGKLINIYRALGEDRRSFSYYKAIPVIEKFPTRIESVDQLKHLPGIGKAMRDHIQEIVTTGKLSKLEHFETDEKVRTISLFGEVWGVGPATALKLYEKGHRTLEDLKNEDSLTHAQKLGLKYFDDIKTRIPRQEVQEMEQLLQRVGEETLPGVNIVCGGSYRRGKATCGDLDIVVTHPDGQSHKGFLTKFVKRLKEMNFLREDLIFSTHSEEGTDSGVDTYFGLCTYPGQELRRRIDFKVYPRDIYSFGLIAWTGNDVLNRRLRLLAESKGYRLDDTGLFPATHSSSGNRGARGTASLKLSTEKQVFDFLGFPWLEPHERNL
Assay: co-IP; endogenous proteins; Arabidopsis seedlings cross-linked with 1% formaldehyde; extract immunoprecipitated with affinity purified anti-AtPolλ polyclonal antibody, probed with anti-HSP90 antibody (1:500); atpolλ-1 null line as negative control; vehicle (1% DMSO) sample of Fig 8C

binding: binds
Substance: endogenous Arabidopsis HSP90
